Test results as given in the supplement of paper PMC6411743.
± gives the standard deviation of the averaged measurements. Some of the results follow.

What was measured:
Test in all cases: NP40-soluble protein abundance relative to vehicle (solubility fold change) (ratio); higher = more soluble protein in presence of GTP
[1] = target: T1, Q5TBI2 and related entries (UniProt Q8NDD1)
T1 sequence (whole entry): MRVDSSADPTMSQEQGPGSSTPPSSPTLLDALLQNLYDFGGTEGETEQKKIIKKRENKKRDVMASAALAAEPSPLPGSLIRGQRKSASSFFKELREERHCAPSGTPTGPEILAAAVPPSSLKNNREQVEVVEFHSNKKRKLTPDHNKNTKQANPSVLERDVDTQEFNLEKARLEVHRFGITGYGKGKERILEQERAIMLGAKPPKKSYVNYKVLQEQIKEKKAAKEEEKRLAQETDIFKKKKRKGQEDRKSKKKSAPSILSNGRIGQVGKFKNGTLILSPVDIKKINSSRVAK
In short: (§1)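 Data come from three independent experiments in which Dounce-homogenised Jurkat crude lysate was treated at eight concentrations from 0.1 to 10 mM. Treatment ran 10 min at room temperature and then 3 min at 37 °C, after which 0.8% NP40 and benzonase were added for 60 min at 4 °C before ultracentrifugation. The supernatant underwent TMT labelling and LC-MS/MS, and vsn-normalised intensities were expressed as fold change against the detergent-processed vehicle in each replicate.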

SLFN11 = target: T2, SLFN11 (UniProt Q7Z7L1)
T2 sequence (whole entry): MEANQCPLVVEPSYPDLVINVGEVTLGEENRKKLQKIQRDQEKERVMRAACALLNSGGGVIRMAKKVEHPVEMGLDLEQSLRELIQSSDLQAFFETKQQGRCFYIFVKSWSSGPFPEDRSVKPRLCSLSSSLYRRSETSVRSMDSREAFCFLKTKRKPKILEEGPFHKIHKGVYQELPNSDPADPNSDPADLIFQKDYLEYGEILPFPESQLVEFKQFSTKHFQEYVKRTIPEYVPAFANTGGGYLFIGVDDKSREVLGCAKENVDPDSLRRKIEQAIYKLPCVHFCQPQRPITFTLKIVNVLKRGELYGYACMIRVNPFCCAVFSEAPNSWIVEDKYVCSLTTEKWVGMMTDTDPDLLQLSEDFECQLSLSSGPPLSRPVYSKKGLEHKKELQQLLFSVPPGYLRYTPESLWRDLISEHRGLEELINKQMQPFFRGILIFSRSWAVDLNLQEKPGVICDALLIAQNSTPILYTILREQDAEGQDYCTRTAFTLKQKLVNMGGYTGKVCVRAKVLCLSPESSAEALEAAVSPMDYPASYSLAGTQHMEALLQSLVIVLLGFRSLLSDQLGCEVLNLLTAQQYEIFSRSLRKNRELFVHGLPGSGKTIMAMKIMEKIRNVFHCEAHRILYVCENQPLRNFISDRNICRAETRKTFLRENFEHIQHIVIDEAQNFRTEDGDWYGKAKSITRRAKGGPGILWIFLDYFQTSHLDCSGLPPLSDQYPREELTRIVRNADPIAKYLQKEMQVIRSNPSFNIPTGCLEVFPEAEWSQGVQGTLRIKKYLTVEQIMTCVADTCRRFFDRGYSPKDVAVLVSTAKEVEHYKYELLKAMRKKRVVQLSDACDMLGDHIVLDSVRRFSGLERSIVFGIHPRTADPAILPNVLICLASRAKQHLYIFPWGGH
In short: as §1

UniProt Q5VST6 = target: T3, UniProt Q5VST6
T3 sequence (whole entry): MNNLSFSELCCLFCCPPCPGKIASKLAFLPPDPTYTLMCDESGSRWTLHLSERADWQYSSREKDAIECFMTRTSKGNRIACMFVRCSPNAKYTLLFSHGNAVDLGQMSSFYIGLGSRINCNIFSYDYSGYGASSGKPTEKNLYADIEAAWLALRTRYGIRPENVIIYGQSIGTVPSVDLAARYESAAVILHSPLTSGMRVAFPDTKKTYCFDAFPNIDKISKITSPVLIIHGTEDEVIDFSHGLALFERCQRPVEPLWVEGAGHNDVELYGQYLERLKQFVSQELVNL
In short: as §1

UniProt Q5W0B1 = target: T4, UniProt Q5W0B1
T4 sequence (whole entry): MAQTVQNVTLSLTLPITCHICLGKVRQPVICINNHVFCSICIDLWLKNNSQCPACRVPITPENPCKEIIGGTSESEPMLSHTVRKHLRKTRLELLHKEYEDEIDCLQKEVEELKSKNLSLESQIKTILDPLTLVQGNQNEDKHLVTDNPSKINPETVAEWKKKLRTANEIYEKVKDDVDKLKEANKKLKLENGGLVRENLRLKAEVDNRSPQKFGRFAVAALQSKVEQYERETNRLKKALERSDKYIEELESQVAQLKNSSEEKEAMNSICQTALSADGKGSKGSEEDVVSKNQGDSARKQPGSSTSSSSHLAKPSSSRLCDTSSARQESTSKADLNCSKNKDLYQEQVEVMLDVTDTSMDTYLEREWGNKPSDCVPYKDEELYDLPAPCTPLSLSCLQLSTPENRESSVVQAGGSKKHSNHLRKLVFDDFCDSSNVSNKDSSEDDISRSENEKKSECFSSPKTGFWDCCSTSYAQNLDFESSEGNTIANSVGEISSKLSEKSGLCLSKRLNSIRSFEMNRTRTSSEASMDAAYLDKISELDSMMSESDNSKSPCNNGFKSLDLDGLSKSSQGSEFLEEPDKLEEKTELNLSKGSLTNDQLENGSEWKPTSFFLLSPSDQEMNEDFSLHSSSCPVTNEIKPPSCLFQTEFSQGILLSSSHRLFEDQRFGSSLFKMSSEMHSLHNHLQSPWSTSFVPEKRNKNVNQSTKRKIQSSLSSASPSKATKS
In short: as §1

UniProt Q68CQ4 = target: T5, UniProt Q68CQ4
T5 sequence (whole entry): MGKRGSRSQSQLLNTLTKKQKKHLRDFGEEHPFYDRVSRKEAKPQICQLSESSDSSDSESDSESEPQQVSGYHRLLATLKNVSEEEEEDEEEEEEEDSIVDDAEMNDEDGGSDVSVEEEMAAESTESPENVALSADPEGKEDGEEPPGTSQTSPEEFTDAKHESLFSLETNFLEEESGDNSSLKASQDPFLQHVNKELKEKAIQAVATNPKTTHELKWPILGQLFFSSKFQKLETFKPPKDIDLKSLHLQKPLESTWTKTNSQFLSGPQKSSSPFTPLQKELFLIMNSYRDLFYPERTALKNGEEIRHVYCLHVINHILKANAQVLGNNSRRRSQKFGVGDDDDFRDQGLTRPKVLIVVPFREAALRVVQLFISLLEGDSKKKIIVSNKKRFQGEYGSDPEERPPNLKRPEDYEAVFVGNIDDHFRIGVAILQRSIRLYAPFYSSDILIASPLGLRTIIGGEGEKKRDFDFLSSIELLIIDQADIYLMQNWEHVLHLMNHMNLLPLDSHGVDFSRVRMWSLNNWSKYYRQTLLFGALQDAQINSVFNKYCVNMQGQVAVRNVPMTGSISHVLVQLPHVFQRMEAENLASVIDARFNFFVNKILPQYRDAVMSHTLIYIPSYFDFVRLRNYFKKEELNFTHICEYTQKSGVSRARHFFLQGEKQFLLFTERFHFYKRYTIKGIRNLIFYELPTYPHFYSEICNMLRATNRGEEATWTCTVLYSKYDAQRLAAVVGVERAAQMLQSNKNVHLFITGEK
In short: as §1

## Nc1nc2c(ncn2[C@@H]2O[C@H](COP(=O)(O)OP(=O)(O)OP(=O)(O)O)[C@@H](O)[C@H]2O)c(=O)[nH]1 [guanosine triphosphate]
[1]; concentration: 4mM
  NP40-soluble protein abundance: 1.29 ± 0.093
[1]; concentration: 6mM
  NP40-soluble protein abundance: 1.36 ± 0.13
[1]; concentration: 8mM
  NP40-soluble protein abundance: 1.43 ± 0.12
[1]; concentration: 10mM
  NP40-soluble protein abundance: 1.6 ± 0.15
SLFN11; concentration: 0.1mM
  NP40-soluble protein abundance: 1.24 ± 0.095
SLFN11; concentration: 0.5mM
  NP40-soluble protein abundance: 1.11 ± 0.036
SLFN11; concentration: 1mM
  NP40-soluble protein abundance: 1.17 ± 0.069
SLFN11; concentration: 2mM
  NP40-soluble protein abundance: 1.1 ± 0.09
SLFN11; concentration: 4mM
  NP40-soluble protein abundance: 1.28 ± 0.12
SLFN11; concentration: 6mM
  NP40-soluble protein abundance: 1.08 ± 0.015
SLFN11; concentration: 8mM
  NP40-soluble protein abundance: 1.17 ± 0.016
SLFN11; concentration: 10mM
  NP40-soluble protein abundance: 0.978 ± 0.096
UniProt Q5VST6; concentration: 0.1mM
  NP40-soluble protein abundance: 1.02 ± 0.063
UniProt Q5VST6; concentration: 0.5mM
  NP40-soluble protein abundance: 0.971 ± 0.026
UniProt Q5VST6; concentration: 1mM
  NP40-soluble protein abundance: 0.97 ± 0.064
UniProt Q5VST6; concentration: 2mM
  NP40-soluble protein abundance: 0.889 ± 0.032
UniProt Q5VST6; concentration: 4mM
  NP40-soluble protein abundance: 0.938 ± 0.015
UniProt Q5VST6; concentration: 6mM
  NP40-soluble protein abundance: 0.86 ± 0.046
UniProt Q5VST6; concentration: 8mM
  NP40-soluble protein abundance: 0.916 ± 0.054
UniProt Q5VST6; concentration: 10mM
  NP40-soluble protein abundance: 0.839 ± 0.049
UniProt Q5W0B1; concentration: 0.1mM
  NP40-soluble protein abundance: 0.947 ± 0.091
UniProt Q5W0B1; concentration: 0.5mM
  NP40-soluble protein abundance: 0.972 ± 0.068
UniProt Q5W0B1; concentration: 1mM
  NP40-soluble protein abundance: 1 ± 0.044
UniProt Q5W0B1; concentration: 2mM
  NP40-soluble protein abundance: 0.996 ± 0.067
UniProt Q5W0B1; concentration: 4mM
  NP40-soluble protein abundance: 1.05 ± 0.12
UniProt Q5W0B1; concentration: 6mM
  NP40-soluble protein abundance: 1.1 ± 0.1
UniProt Q5W0B1; concentration: 8mM
  NP40-soluble protein abundance: 1.16 ± 0.16
UniProt Q5W0B1; concentration: 10mM
  NP40-soluble protein abundance: 1.19 ± 0.16
UniProt Q68CQ4; concentration: 0.1mM
  NP40-soluble protein abundance: 1.02 ± 0.068
UniProt Q68CQ4; concentration: 0.5mM
  NP40-soluble protein abundance: 1.02 ± 0.051
UniProt Q68CQ4; concentration: 1mM
  NP40-soluble protein abundance: 1.01 ± 0.048
UniProt Q68CQ4; concentration: 2mM
  NP40-soluble protein abundance: 0.992 ± 0.04
UniProt Q68CQ4; concentration: 4mM
  NP40-soluble protein abundance: 0.999 ± 0.026
UniProt Q68CQ4; concentration: 6mM
  NP40-soluble protein abundance: 0.994 ± 0.042
UniProt Q68CQ4; concentration: 8mM
  NP40-soluble protein abundance: 1.02 ± 0.046
UniProt Q68CQ4; concentration: 10mM
  NP40-soluble protein abundance: 1.03 ± 0.048
